Data on eight sequences can be found in patent publication US20170009288.

By UniProt entry, the sequences of proteins in these tests, tags left out. Where a name states a change or a piece, a line headed by the entry shows the natural chain unless it says otherwise.
UniProt P07636: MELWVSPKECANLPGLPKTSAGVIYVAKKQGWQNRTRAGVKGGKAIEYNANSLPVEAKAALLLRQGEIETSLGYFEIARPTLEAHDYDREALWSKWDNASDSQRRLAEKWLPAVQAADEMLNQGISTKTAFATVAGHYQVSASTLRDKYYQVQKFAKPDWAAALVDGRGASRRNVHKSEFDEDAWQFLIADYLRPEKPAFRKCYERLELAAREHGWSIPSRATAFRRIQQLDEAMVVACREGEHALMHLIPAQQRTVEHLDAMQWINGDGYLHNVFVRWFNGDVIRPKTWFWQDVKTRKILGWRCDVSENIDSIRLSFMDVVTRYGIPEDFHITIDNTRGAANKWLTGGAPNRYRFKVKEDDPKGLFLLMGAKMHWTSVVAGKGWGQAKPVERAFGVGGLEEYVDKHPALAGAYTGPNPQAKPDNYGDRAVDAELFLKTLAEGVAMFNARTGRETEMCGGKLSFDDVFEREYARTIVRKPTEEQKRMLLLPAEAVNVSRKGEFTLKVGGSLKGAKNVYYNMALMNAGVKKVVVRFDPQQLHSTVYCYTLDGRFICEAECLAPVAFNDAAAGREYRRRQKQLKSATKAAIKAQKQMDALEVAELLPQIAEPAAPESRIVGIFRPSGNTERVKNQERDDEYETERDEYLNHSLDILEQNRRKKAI

For some assays here: Negatives hold for the conditions tested. A weaker result is weaker than the reference pair of the same experiment. For some assays here: Construct, isoform or probe ends are uncertain for at least one entry.

The target of data set [1] is MuA transposase (UniProt P07636). The data set is described as follows: enzyme reaction in vitro. The conditions noted are these: purified recombinant protein, variant of Control native Mu transposon end.
Data set [2] has the same target. The data set is described as follows: EMSA. As to conditions: weaker complex than control; purified recombinant protein; variant of Control native Mu transposon end. On the technique in general: Mobility shift assays separate free from complexed probe on a gel.
The mark [3] stands for this setting: fragmentation apparent, lower efficiency.

As to “GTTTTCGCATTTATCGTGAAACGCTTTCGCGTTTTTCGTGCGTCAGTTCA / TGCTGAACTGACGCACGAAAAACGCGAAAGCGTTTCACGATAAATGCGAAAAC [Nick 45-5 transposon end]”, the “activity on this sequence” value with MuA transposase [1] (reduced fragmentation efficiency) is given as “less active”.

“GTTTTCGCATTTATCGTGAAACGCTTTCGCGTTTTTCGTGCGAGTTCA / TGCTGAACTGACGCACGAAAAACGCGAAAGCGTTTCACGATAAATGCGAAAAC [Gap 42-6 transposon end]”: the “activity on this sequence” value in the data set with MuA transposase [1] (active, slower than native end) is on record as “less active”.

As to “GTTTGTGCATATATCGTAAAAAGCACTCGCGTATTTCGTGCGCCGCTTAA / TGCTTAAGCGGCGCACGAAATACGCGAGTGCTTTTTACGATATATGCACAAAC [Transposon No. 11]”, the binding result with MuA transposase [2] was “binds more weakly”. In addition, the “activity on this sequence” value in the data set with MuA transposase [1] (setting [3]) is given as “less active”.

With “GTTTTCGCATTTATCGTGAAACGCTTTCGCGTTTTTCGTGCGTCAGTTCA / TGCTGAACTGACGCACGAAAAACGCGAAAGCGTTTCACGATAAATGCGAAAAC [Nick 38-12 transposon end]”, the “activity on this sequence” value in the data set with MuA transposase [1] (reduced efficiency, slower than native end) is “less active”.

Consider “GTTCTCGCATCTATCGTGAAAAGCTTCTCCGTTCTTCGGCCGCCGCTTCA / TGCTGAAGCGGCGGCCGAAGAACGGAGAAGCTTTTCACGATAGATGCGAGAAC [Transposon No. 9]”, for which the “activity on this sequence” value in the data set with MuA transposase [1] (fragmentation completely abolished) was “not active”.

As for “GTCATTACATTGATCGTGAAAGGCTTTCGCGTTGTTCGAGCGCCGCTTTA / TGCTAAAGCGGCGCTCGAACAACGCGAAAGCCTTTCACGATCAATGTAATGAC [Transposon No. 5]”, the binding result in the data set with MuA transposase [2] is on record as “binds more weakly”. The “activity on this sequence” value in the data set with MuA transposase [1] (setting [3]) is “less active”.

Regarding “GTTTTCGCATTTATCGTGAAACGCTTTCGCGTTTTTCGTGTCAGTTCA / TGCTGAACTGACGCACGAAAAACGCGAAAGCGTTTCACGATAAATGCGAAAAC [Gap 40-8 transposon end]”, the “activity on this sequence” value with MuA transposase [1] (active, profile similar to nick 38-12) is “less active”.

Take “GTGCTTTCATTTATCGGGAAACGCTGTCGCGTTGTTCGTGCGCAGCTTTA / TGCTAAAGCTGCGCACGAACAACGCGACAGCGTTTCCCGATAAATGAAAGCAC [Transposon No. 10]”: in the data set with MuA transposase [2], the binding result is “binds more weakly”. Moreover, the “activity on this sequence” value with MuA transposase [1] (setting [3]) was “less active”.
